Experimental data as given in publication PMC11143218, “Evolved histone tail regulates 53BP1 recruitment at damaged chromatin” (Nature Communications, 2024).
No constants are given. Whether binding was seen depends on the method and setting. Binding seen in cells or lysates may run through a third protein. Binding can be weak; no strength is given.

Molecular target: T1, biotinylated phosphorylated S139 H2AX C-terminal tail peptide (human)
T1 sequence (peptide, biotin on the N-terminus; phosphoserine (pS) at S139): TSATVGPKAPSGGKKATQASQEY
Assay: pull-down; HEK293T lysates (myc-tagged expression vectors, NETN buffer) incubated with 2.5 μg biotinylated peptide and 10 μL streptavidin beads, 1 h at 4 °C; washed three times with NETN; western blot; only the target purified

**Q.** For “MDC1 tandem BRCT domain (human) (domain or fragment)”, which binding is on record?
**A.** binds
